# Assay results from the supplement of paper PMC4683952.
# The list shows a part of the results. Cut-off read from the data, not from the text of the source: active = 2 or more and inactive = the rest. Repeats in this data set agree poorly, so a single value says little.
# System: Lgr5 (MarsCy1-Lgr5-EGFP, U2OS)
# Assay: cell-surface Lgr5 expression (SCi1 fluorescence, background-subtracted) relative to WT DMSO (fold of DMSO control); higher = more Lgr5 at the plasma membrane
# Conditions: U2OS MarsCy1-Lgr5-EGFP stable; treatment time: overnight; library: ActiProbe-5K (TimTec); 25 µM
row,Structure (SMILES),cell-surface Lgr5 expression
1,c1ccc2c(c1)ncn2CCn1cnc2ccccc21,inactive: 1.14
2,c1ccc2nc3c(nc2c1)[nH]c1ccccc13,inactive: 1.04
3,C=CCC(N)(CC=C)C1=C[C@H](CC(=C)C)N[C@@H](CC(=C)C)C1,inactive: 1.11
4,COCCOC(=O)C1=C(C)NC(=O)NC1C1CC=CCC1 (configuration not stated),inactive: 1.02
5,N#CCc1nc(-c2cccs2)cs1,inactive: 1.4
6,NC(=O)c1c(NC(=O)C2CC2)sc2c1CCCC2,inactive: 1.23
7,Nc1ccc(S(=O)(=O)NC2=NCCC2)cc1,inactive: 1.04
8,Cc1ccc(/C=N/n2c(C)nnc2C)s1,inactive: 1.41
9,COCn1nnc(-c2ccccn2)n1,inactive: 0.978
10,O=C(CN1CCOCC1)NCCCCCNC(=O)CN1CCOCC1,inactive: 1.18
11,CCOc1cc(S(=O)(=O)N2CCN=C2C)ccc1F,inactive: 0.839
12,O=c1[nH]nc2c3c(cccc13)-c1ccccc1-2,inactive: 1.27
13,Cn1c(-c2ccc(Cl)cc2Cl)n[nH]c1=S,inactive: 1.31
14,Sc1nnc(C2CCCCC2)n1/N=C\C=C/c1ccco1,inactive: 0.844
15,Fc1ccc(-c2cc(-c3nnc4sc(-c5cccs5)nn34)[nH]n2)cc1,inactive: 1.14
16,C1(C(C2=NC([C@](C)(C)C)CO2)(C)C)=NC([C@](C)(C)C)CO1 (configuration not stated),inactive: 1.38

row,Structure (SMILES),cell-surface Lgr5 expression
1,Nc1nc(N)c2nc(CO)cnc2n1,inactive: 0.833
2,O=S(=O)(OC1CCCN2CCCCC12)c1ccccc1 (configuration not stated),inactive: 1.28
3,Clc1ccc2c(SSc3ccnc4cc(Cl)ccc34)ccnc2c1,inactive: 1.16
4,CC12CC3CC(C)(C1)CC(CC(=O)NN)(C3)C2,inactive: 1.12
5,OCC1OC(Nc2ccc(Cl)cc2)CC1O (configuration not stated),inactive: 0.996
6,O=C/C(=C\O)c1ccncn1,inactive: 1.26
7,Cn1cc(Cn2cc(N)cn2)cn1,inactive: 1.28
8,O=C1CCCC1CCCCCCCCCCCO (configuration not stated),inactive: 1.37
9,Cc1ccccc1-c1nnc2n1N=C(c1ccc3c(c1)OCO3)CS2,inactive: 1.17
10,N#Cc1cc(C#N)c(=S)[nH]c1N,inactive: 1.19
11,NC1=NC2=C(c3ccccc3)C(=O)CN2c2ccccc21,inactive: 1.02
12,C1(=C(N2CCCC2)CCCC1)/C=C(\C#N)C#N,inactive: 0.771
13,CC(=O)Nc1nonc1N1C(=N)SCC1=O,inactive: 0.963
14,Cc1cc(C)c(CSc2nnc(C)s2)c(C)c1,inactive: 1.28
15,O=c1[nH]c2cc[nH]c(=O)c2[nH]1,inactive: 1.11
16,CC(C)CC(=O)NCC1CCCO1 (configuration not stated),inactive: 1.16

# For convenience, part of the list above.
row,Structure (SMILES),cell-surface Lgr5 expression
14,Cc1cc(C)c(CSc2nnc(C)s2)c(C)c1,inactive: 1.28
15,O=c1[nH]c2cc[nH]c(=O)c2[nH]1,inactive: 1.11
16,CC(C)CC(=O)NCC1CCCO1 (configuration not stated),inactive: 1.16
